Values from PubChem BioAssay AID504793 (Drosophila RNAi Screening Center, 2011)

- Test: 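Genes required for cells to halt at G2/M after double-strand DNA breaks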 (primary screen)
- System: Drosophila S2R+ cells
- Reagent: long dsRNA against Drosophila genes, about 0.25 µg dsRNA per well
- Time to read-out: 4 days of dsRNA, then 4 hours of drug before read-out
- Conditions: doxorubicin 0.5 µM for 4 hours to cause double-strand breaks, in cells also given a low, harmless dose of dsRNA against nbs to sensitise the assay
- Detection: 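Per-well count of mitotic cells stained for phospho-histone H3 after doxorubicin exposure, used as mitotic index; counts are raw and not normalised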
- Scale: mitotic cells: higher = more cells in mitosis, weaker G2 arrest
- Active means: 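Genes are called active only when high mitotic counts were reproduced with independent dsRNAs and mitosis was checked for delay without damage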
- Meaning of the calls: active = confirmed in follow-up tests; inactive = not confirmed
The screen tested about 23,000 reagents; shown is a random part of those that have a named target and a result. In the full data, 62 (0.27%) were called active. 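Calls come from follow-up tests whose scores are not deposited, so confirmed genes may have low counts here; counts are not normalised per plate.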 Raw values are not corrected between plates. A plus sign joins genes that one reagent is predicted to hit.

no.	Gene	amplicon	mitotic cells, replicate 1	outcome
1	mRpL21	DRSC11100	8	inactive
2	nmdyn-D7	DRSC17016	5	inactive
3	CG2224	DRSC15429	5	inactive
4	CG2224	DRSC24269	5	inactive
5	CG5013	DRSC15695	1	inactive
6	side-II	DRSC01913	6	inactive
7	side-II	DRSC01932	13	inactive
8	side-II	DRSC02480	6	inactive
9	side-II	DRSC22508	9	inactive
10	side-II	DRSC25118	11	inactive
11	Sec13	DRSC14144	7	inactive
12	RAF2	DRSC10443	11	inactive
13	RAF2	DRSC10454	2	inactive
14	RAF2	DRSC26436	12	inactive
15	Gr21a	DRSC00366	10	inactive
16	Gr21a	DRSC28583	5	inactive
17	Cbl	DRSC10764	9	inactive
18	Cbl	DRSC11111	1	inactive
19	Cbl	DRSC28169	3	inactive
20	Ugt35E1	DRSC15193	4	inactive
21	Ugt35E1	DRSC27215	8	inactive
22	wapl	DRSC18851	10	inactive
23	wapl	DRSC27941	5	inactive
24	fs(1)M3	DRSC18381	3	inactive
25	fs(1)M3	DRSC29155	5	inactive
26	CG16904	DRSC15161	1	inactive
27	CG16904	DRSC25306	12	inactive
28	Rev1	DRSC08264	7	inactive
29	GluRIIB	DRSC03335		inactive
30	CG7653	DRSC01886	1	inactive
31	Cpr49Af	DRSC07202	3	inactive
32	Cpr49Af	DRSC24397	2	inactive
33	Tsen2	DRSC01557	8	inactive
34	Tsen2	DRSC27827	1	inactive
35	Pect	DRSC02867	5	inactive
36	Pect	DRSC02868	2	inactive
37	CG15343	DRSC18028	7	inactive
38	Taf4	DRSC11297	6	inactive
39	Taf4	DRSC25921	9	inactive
40	side-VI	DRSC14920	5	inactive
41	side-VI	DRSC23088	6	inactive
42	side-VI	DRSC28883	1	inactive
43	CG10132	DRSC02013	5	inactive
44	CG10132	DRSC27890	4	inactive
45	Mtr4	DRSC03560	13	inactive
46	CngA	DRSC06580	4	inactive
47	CngA	DRSC07362	6	inactive
48	CngA	DRSC23533	4	inactive
49	Cyp9f3	DRSC16636	7	inactive
50	Cyp9f3	DRSC25711	8	inactive

A stretch from the list above:
no.	Gene	amplicon	mitotic cells, replicate 1	outcome
4	CG2224	DRSC24269	5	inactive
5	CG5013	DRSC15695	1	inactive
6	side-II	DRSC01913	6	inactive
7	side-II	DRSC01932	13	inactive
8	side-II	DRSC02480	6	inactive
9	side-II	DRSC22508	9	inactive
10	side-II	DRSC25118	11	inactive
11	Sec13	DRSC14144	7	inactive
12	RAF2	DRSC10443	11	inactive
13	RAF2	DRSC10454	2	inactive

Continued:
no.	Gene	amplicon	mitotic cells, replicate 1	outcome
51	CG31104	DRSC14658	15	inactive
52	CG31104	DRSC24390	7	inactive
53	CG30091	DRSC21809	12	inactive
54	CG30091	DRSC27799	7	inactive
55	Fmo-1	DRSC04328	5	inactive
56	Fmo-1	DRSC29306	1	inactive
57	Acp1	DRSC01854	2	inactive
58	CG7255	DRSC10790	5	inactive
59	Art7	DRSC04588		inactive
60	Art7	DRSC26145	2	inactive
61	kay	DRSC13962	6	inactive
62	kay	DRSC16977	19	inactive
63	CG11583	DRSC08202	12	inactive
64	CG11583	DRSC26394	14	inactive
65	r2d2	DRSC03014	14	inactive
66	r2d2	DRSC29562	11	inactive
67	CG3342	DRSC18304	2	inactive
68	CG3342	DRSC30048	6	inactive
69	MFS16	DRSC04051	4	inactive
70	MFS16	DRSC26536	7	inactive
71	Lcp1	DRSC07455	2	inactive
72	CG12128 + CG1407	DRSC06446	2	inactive
73	Rab1	DRSC16808	11	inactive
74	Rab1	DRSC29851	2	inactive
75	CG18011	DRSC06697	6	inactive
76	CG18011	DRSC06706	6	inactive
